PubChem BioAssay AID1224826 – NIAID – 2016

Screen: 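Genes that change LPS-induced Tnf promoter activity in mouse macrophages when knocked down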 (primary screen)
Cells: RAW264.7 G9 macrophages from mouse bearing reporters for p65 (GFP) and the Tnf promoter (mCherry)
Reagents: siRNA pool against mouse genes, 100 nM
Duration: 16 h of LPS stimulation, after 2 days of siRNA transfection
Challenge: bacterial lipopolysaccharide (Salmonella minnesota R595), 10 ng/ml
Measured: 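Imaged Tnf reporter mCherry in nuclei, minus background, normalised per plate to the median and expressed as robust z-scores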
Reading the numbers: Tnf reporter robust z-score: higher = stronger Tnf promoter reporter signal after LPS
Hit rule: 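Called active when robust z-score is at most -1.3, matching the median of the Tlr4 knock-down control, or over 3; control wells and wells with under 50 cells never active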
Calls: active = Tnf reporter clearly lowered or raised; inactive = no clear change in Tnf reporter
Here is one part, drawn at random, of about 17,000 reagents. Of all reagents, about 1,110 (6.6%) were called active. 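Active means lowered or raised reporter signal; replicate intensities are raw and not normalised per plate.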 Entries without a mark were called inactive. Not all columns of the deposit are shown.

no.	gene	Tnf reporter robust z-score	fewer than 50 cells in well
1	Vmn1r235 (vomeronasal 1 receptor 235)	0.09	enough cells in well
2	Dph2 (DPH2 homolog)	-1.02	enough cells in well
3	Klc4 (kinesin light chain 4)	1.79	enough cells in well
4	Ggact (gamma-glutamylamine cyclotransferase)	0.58	enough cells in well
5	Vmn1r70 (vomeronasal 1 receptor 70)	0.15	enough cells in well
6	Tor1b (torsin family 1, member B)	0	enough cells in well
7	Klra9 (killer cell lectin-like receptor subfamily A, member 9)	0.06	enough cells in well
8	Krtap31-1 (keratin associated protein 31-1)		fewer than 50 cells per well; well left out of calls
9	Svs4 (seminal vesicle secretory protein 4)	-0.59	enough cells in well
10	Or56a3b (olfactory receptor family 56 subfamily A member 3B)	-0.55	enough cells in well
11	Snrpa (small nuclear ribonucleoprotein polypeptide A)		fewer than 50 cells per well; well left out of calls
12	Ift57 (intraflagellar transport 57)	-1.08	enough cells in well
13	Nop9 (NOP9 nucleolar protein)	1.73	enough cells in well
14	Prom2 (prominin 2)	1.04	enough cells in well
15	Atp6v1g2 (ATPase, H+ transporting, lysosomal V1 subunit G2)	-0.16	enough cells in well
16	Atp6v1e2 (ATPase, H+ transporting, lysosomal V1 subunit E2)	-0.22	enough cells in well
17	Wwp2 (WW domain containing E3 ubiquitin protein ligase 2)	-0.01	enough cells in well
18	Prkcz (protein kinase C, zeta)	1.28	enough cells in well
19	Wrnip1 (Werner helicase interacting protein 1)	-0.57	enough cells in well
20	Pde3a (phosphodiesterase 3A, cGMP inhibited)	0.88	enough cells in well
21	Slc6a12	-1.22	enough cells in well
22	Ric8b (RIC8 guanine nucleotide exchange factor B)	0.05	enough cells in well
23	Mc2r (melanocortin 2 receptor)	0.29	enough cells in well
24	Or8d6 (olfactory receptor family 8 subfamily D member 6)	1.15	enough cells in well
25	Cyp2r1 (cytochrome P450, family 2, subfamily r, polypeptide 1)	0.53	enough cells in well
26	Or1j21 (olfactory receptor family 1 subfamily J member 21)		fewer than 50 cells per well; well left out of calls
27	Mphosph6 (M phase phosphoprotein 6)	-0.95	enough cells in well
28	Krt76 (keratin 76)	0.94	enough cells in well
29	Zhx3 (zinc fingers and homeoboxes 3)	-0.71	enough cells in well
30	Cptp (ceramide-1-phosphate transfer protein)	-0.28	enough cells in well
31	Bclaf1 (BCL2-associated transcription factor 1)	-0.16	enough cells in well
32	Maea (macrophage erythroblast attacher)	-0.59	enough cells in well
33	Mul1 (mitochondrial ubiquitin ligase activator of NFKB 1)		fewer than 50 cells per well; well left out of calls
34	Esyt3 (extended synaptotagmin-like protein 3)		fewer than 50 cells per well; well left out of calls
35	Hoxd8 (homeobox D8)	-0.21	enough cells in well
36	Yars1 (tyrosyl-tRNA synthetase 1)	-0.41	enough cells in well
37	Depp1 (DEPP1 autophagy regulator)	-0.2	enough cells in well
38	Hycc1 (hyccin PI4KA lipid kinase complex subunit 1)	-0.25	enough cells in well
39	Cyp39a1 (cytochrome P450, family 39, subfamily a, polypeptide 1)	2.16	enough cells in well
40	Pyroxd1 (pyridine nucleotide-disulphide oxidoreductase domain 1)	-0.85	enough cells in well
41	Mterf3 (mitochondrial transcription termination factor 3)	0.07	enough cells in well
42	4921509C19Rik (RIKEN cDNA 4921509C19 gene)	0.38	enough cells in well
43	Gad1 (glutamate decarboxylase 1)	-0.7	enough cells in well
44	Ube2e2 (ubiquitin-conjugating enzyme E2E 2)	5.21 (active)	enough cells in well
45	Caskin2 (CASK-interacting protein 2)	-0.85	enough cells in well
46	Id2 (inhibitor of DNA binding 2)	-0.81	enough cells in well
47	1700120K04Rik (RIKEN cDNA 1700120K04 gene)	-1.52 (active)	enough cells in well
48	Tspoap1 (TSPO associated protein 1)	-0.17	enough cells in well
49	Scn4a (sodium channel, voltage-gated, type IV, alpha)	0.23	enough cells in well
50	Crb1	-0.95	enough cells in well
51	H2-DMa (histocompatibility 2, class II, locus DMa)	0.54	enough cells in well
52	Gm9517 (predicted gene 9517)		fewer than 50 cells per well; well left out of calls
53	Htr1a (5-hydroxytryptamine (serotonin) receptor 1A)	0.04	enough cells in well
54	Gpr12 (G-protein coupled receptor 12)	-1.55 (active)	enough cells in well
55	Or5w11 (olfactory receptor family 5 subfamily W member 11)	-0.8	enough cells in well
56	Kif15 (kinesin family member 15)	0.09	enough cells in well
57	Slit3 (slit guidance ligand 3)	-0.8	enough cells in well
58	Spata24 (spermatogenesis associated 24)	-0.59	enough cells in well

6 entries from above, reformatted:
gene	Tnf reporter robust z-score	fewer than 50 cells in well
Ric8b (RIC8 guanine nucleotide exchange factor B)	0.05	enough cells in well
Mc2r (melanocortin 2 receptor)	0.29	enough cells in well
Or8d6 (olfactory receptor family 8 subfamily D member 6)	1.15	enough cells in well
Cyp2r1 (cytochrome P450, family 2, subfamily r, polypeptide 1)	0.53	enough cells in well
Or1j21 (olfactory receptor family 1 subfamily J member 21)		fewer than 50 cells per well; well left out of calls
Mphosph6 (M phase phosphoprotein 6)	-0.95	enough cells in well
